Test [1] addresses FLAG-tagged Hsp90α C-domain (human). As to the kind of experiment: co-IP; FLAG-tagged protein transiently expressed in HEK293, immunoprecipitated with anti-FLAG M2 affinity gel; endogenous partners by immunoblot; empty vector control. Background: In western blotting, separated proteins are transferred to a membrane and probed.
In test [2] the target is FLAG-tagged Hsp90α M-domain (human). The test is described as above.
The target of test [3] is Hsp90α-FLAG with MEEVD deleted (α∆TPR) (human). The test is described as above.
The target in test [4] is Hsp90β-FLAG with MEEVD deleted (β∆TPR). The description is as above.
Test [5] addresses FLAG-tagged Hsp90α M-domain (human). Description: co-IP; FLAG-tagged protein co-expressed with HA-tagged Tsc1-D in HEK293; anti-FLAG immunoprecipitation; immunoblot.

Results are given in words; binding and its absence hold for the method and conditions named. Binding seen in cells or lysates may run through a third protein. For some assays here: Binding can be weak; no strength is given. For some assays here: Sequences can lack the tags named with a protein.

B1: Tsc1 (hamartin) (protein, UniProt Q92574 1-1164)
chain: MAQQANVGELLAMLDSPMLGVRDDVTAVFKENLNSDRGPMLVNTLVDYYLETSSQPALHILTTLQEPHDKHLLDRINEYVGKAATRLSILSLLGHVIRLQPSWKHKLSQAPLLPSLLKCLKMDTDVVVLTTGVLVLITMLPMIPQSGKQHLLDFFDIFGRLSSWCLKKPGHVAEVYLVHLHASVYALFHRLYGMYPCNFVSFLRSHYSMKENLETFEEVVKPMMEHVRIHPELVTGSKDHELDPRRWKRLETHDVVIECAKISLDPTEASYEDGYSVSHQISARFPHRSADVTTSPYADTQNSYGCATSTPYSTSRLMLLNMPGQLPQTLSSPSTRLITEPPQATLWSPSMVCGMTTPPTSPGNVPPDLSHPYSKVFGTTAGGKGTPLGTPATSPPPAPLCHSDDYVHISLPQATVTPPRKEERMDSARPCLHRQHHLLNDRGSEEPPGSKGSVTLSDLPGFLGDLASEEDSIEKDKEEAAISRELSEITTAEAEPVVPRGGFDSPFYRDSLPGSQRKTHSAASSSQGASVNPEPLHSSLDKLGPDTPKQAFTPIDLPCGSADESPAGDRECQTSLETSIFTPSPCKIPPPTRVGFGSGQPPPYDHLFEVALPKTAHHFVIRKTEELLKKAKGNTEEDGVPSTSPMEVLDRLIQQGADAHSKELNKLPLPSKSVDWTHFGGSPPSDEIRTLRDQLLLLHNQLLYERFKRQQHALRNRRLLRKVIKAAALEEHNAAMKDQLKLQEKDIQMWKVSLQKEQARYNQLQEQRDTMVTKLHSQIRQLQHDREEFYNQSQELQTKLEDCRNMIAELRIELKKANNKVCHTELLLSQVSQKLSNSESVQQQMEFLNRQLLVLGEVNELYLEQLQNKHSDTTKEVEMMKAAYRKELEKNRSHVLQQTQRLDTSQKRILELESHLAKKDHLLLEQKKYLEDVKLQARGQLQAAESRYEAQKRITQVFELEILDLYGRLEKDGLLKKLEEEKAEAAEAAEERLDCCNDGCSDSMVGHNEEASGHNGETKTPRPSSARGSSGSRGGGGSSSSSSELSTPEKPPHQRAGPFSSRWETTMGEASASIPTTVGSLPSSKSFLGMKARELFRNKSESQCDEDGMTSSLSESLKTELGKDLGVEAKIPLNLDGPHPSPPTPDSVGQLHIMDYNETHHEHS
In the case of B1, the binding entry in test [1] is given as “binds”; in test [2] it was “binds”; in test [3], “no binding”; in test [4], “no binding”.

B2: Tsc1-D-HA (domain or fragment, UniProt Q92574 998-1164)
chain: DGCSDSMVGHNEEASGHNGETKTPRPSSARGSSGSRGGGGSSSSSSELSTPEKPPHQRAGPFSSRWETTMGEASASIPTTVGSLPSSKSFLGMKARELFRNKSESQCDEDGMTSSLSESLKTELGKDLGVEAKIPLNLDGPHPSPPTPDSVGQLHIMDYNETHHEHS
On to B2, for which, in test [5], the binding entry was “binds”.

These data come from article PMC5730846.
